Results reported in US7125666.
No constants are given. Whether binding was seen depends on the method and setting. Some results given as binding are weak or reduced against the parent protein; the word gives no strength.

Amino acid sequences for entries named in this document (tags omitted). A change or cut given only in a name is not applied to a line headed by its entry.
UniProt Q8NFW1: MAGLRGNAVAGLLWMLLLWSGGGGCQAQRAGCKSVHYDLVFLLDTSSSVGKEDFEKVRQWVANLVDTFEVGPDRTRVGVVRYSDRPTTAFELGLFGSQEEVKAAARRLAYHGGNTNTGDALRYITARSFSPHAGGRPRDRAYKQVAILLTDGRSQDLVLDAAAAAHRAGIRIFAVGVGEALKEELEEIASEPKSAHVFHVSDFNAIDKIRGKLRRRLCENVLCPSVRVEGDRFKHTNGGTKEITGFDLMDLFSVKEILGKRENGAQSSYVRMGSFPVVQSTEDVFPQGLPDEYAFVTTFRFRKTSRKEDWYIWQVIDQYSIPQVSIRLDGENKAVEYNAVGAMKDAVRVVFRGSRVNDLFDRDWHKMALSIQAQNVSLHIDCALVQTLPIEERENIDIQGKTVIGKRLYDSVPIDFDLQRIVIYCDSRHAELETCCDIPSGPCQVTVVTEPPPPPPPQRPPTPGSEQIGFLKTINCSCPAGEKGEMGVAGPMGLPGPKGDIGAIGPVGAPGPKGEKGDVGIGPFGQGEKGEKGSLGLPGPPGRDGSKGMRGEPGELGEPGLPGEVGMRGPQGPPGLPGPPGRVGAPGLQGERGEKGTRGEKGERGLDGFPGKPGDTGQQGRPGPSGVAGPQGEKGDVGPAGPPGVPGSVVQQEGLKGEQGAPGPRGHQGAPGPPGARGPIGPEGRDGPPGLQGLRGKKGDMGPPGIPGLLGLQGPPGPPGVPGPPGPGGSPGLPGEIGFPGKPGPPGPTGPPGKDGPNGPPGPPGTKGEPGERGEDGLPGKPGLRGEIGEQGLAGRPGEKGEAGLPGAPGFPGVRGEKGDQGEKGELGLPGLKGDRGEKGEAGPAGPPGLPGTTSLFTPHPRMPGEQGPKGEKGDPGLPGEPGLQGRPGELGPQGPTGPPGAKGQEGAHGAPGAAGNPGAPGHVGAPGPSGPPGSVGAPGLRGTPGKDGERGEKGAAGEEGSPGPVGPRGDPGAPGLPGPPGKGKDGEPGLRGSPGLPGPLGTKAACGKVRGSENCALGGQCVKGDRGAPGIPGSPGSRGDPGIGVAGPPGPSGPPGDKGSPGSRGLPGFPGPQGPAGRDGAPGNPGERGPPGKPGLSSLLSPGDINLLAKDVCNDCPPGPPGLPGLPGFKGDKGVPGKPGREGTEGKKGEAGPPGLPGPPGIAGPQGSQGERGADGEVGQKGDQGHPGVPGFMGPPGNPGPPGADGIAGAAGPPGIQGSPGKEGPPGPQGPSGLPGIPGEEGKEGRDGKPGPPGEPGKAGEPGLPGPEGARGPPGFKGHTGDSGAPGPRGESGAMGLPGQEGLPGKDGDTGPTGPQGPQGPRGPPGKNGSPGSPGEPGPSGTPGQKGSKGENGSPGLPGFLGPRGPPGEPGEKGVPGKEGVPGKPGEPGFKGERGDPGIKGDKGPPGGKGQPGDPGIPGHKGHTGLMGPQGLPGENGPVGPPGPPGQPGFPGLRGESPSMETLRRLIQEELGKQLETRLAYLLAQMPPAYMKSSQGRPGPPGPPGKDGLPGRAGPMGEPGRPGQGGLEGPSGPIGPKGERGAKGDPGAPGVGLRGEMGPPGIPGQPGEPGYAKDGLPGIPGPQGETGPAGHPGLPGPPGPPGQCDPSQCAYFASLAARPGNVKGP

Target: Full-length recombinant collagen XXII made in 293 cells (human) (UniProt Q8NFW1)
Test: non-reducing SDS-PAGE mobility (self-association)

binding: binds
Substance: Full-length recombinant collagen XXII made in 293 cells (from UniProt Q8NFW1 28-1626)
